Test system: endopeptidase from the skin of Xenopus laevis
Assay: Substrate specificity analyses: cleavage of peptides and analogues by the purified endopeptidase (acid gel, HPLC/amino acid analysis)
Assay type: biochemical
Conditions: reversed-phase HPLC and amino acid analyses

Row | Substance | peptide bond hydrolyzed by the endopeptidase (cleavage site)
1 | caerulein precursor fragment [CPF] | Leu^10 -Lys^11
2 | xenopsin precursor fragment [XPF] | Gly^11 -Lys^12
3 | magainin 2-amide | Lys-Lys peptide bond at residues ten and eleven
4 | PGLa | Gly^11 -Lys^12
